Reference: patent publication US20220096664A1, “STABILIZED FORMULATIONS CONTAINING IODINATED CONTRAST AGENTS AND CYCLODEXTRINS” (Verrow Pharmaceuticals, Inc., priority 2012, published 2022)
Read-outs that look alike come from different tables or passages of the source. For at least one compound, name, drawing or mass did not settle the structure.

Type: physicochemical
Settings: for Iodide formed: 50 mM agent, 10 mM TRIS; for Iodide Formed, UV Irradiation / Iodide Formed, VIS Irradiation: 50 mM iohexol; for Iodide Formed, UV Irradiation: autoclaved then UV 18 h
Description: The lamps were switched on and the solutions irradiated for 18 to 24 hours for the ultraviolet (UV) lamps or 72 to 90 hours for the visible (VIS) light lamps. At the end of the selected irradiation time, the cuvettes were removed from the photolysis chamber and mixed by inversion 2-times. The caps were then removed and 40 microliter aliquots taken and diluted with 1 mL of an aqueous solution containing ˜0.9 mg/mL sodium thiosulfate. The thiosulfate solution converted any I2, IO3^−, and I3^− present in the solution tor such that total iodine species could be determined in one assay.
The diluted solutions were assayed by high pressure liquid chromatography (HPLC) using a 4.6×250 mm, C-18, 5 micron particle size, reversed phase column with detection at 280 nm for the contrast agent and 230 nm for the thiosulfate and the iodide ion (r). A mobile phase of 30:70 methanol:aqueous buffer (50 mM KH2PO4+7 mL/L 40% tetrabutyl ammonium hydroxide) at 0.75 mL/min was used for elution. Injection volume was 20 microliters. External standards were prepared containing each contrast agent, potassium iodide, and sodium thiosulfate solution and analyzed along with the irradiated samples. The results were reported as weight percentage iodide formed (mg iodide/mg contrast agent times 100).
Aqueous solutions were prepared containing 50 mM iodinated contrast agent, 10 mM tromethamine HCl buffer (TRIS), with and without sulfobutylether beta-cyclodextrin with an average degree of substitution-7 (SBE7-β-CD), or 2-hydroxypropyl beta-cyclodextrin with an average degree of substitution of ˜6.3 (HP6.3-β-CD) or ˜4.3 (HP4.3-β-CD). The iohexol solution was prepared by dissolving solid iohexol powder while the other solutions were prepared by diluting commercial formulated products and adding sufficient TRIS buffer to reach 10 mM. The pH of the solutions was adjusted to 7.4 with 0.1N hydrochloric acid.
Aliquots of the solutions were irradiated with visible light for 72 hours (0.52 million lux hours). Other aliquots were autoclaved for 20 minutes at 121° C., cooled to room temperature and then irradiated with ultraviolet light for 18 hours (119 watt hours/m2). The solutions were then processed, analyzed and reported as in Example 2, except that the chromatographic peaks of the contrast agents were evaluated at 300 nm for both samples and standards.
Aqueous solutions were prepared containing 50 mM iohexol, 0, 2.5, 5, 7.5, or 10 mM tromethamine HCl (TRIS) buffer, with and without 2.5 mM sulfobutylether beta-cyclodextrin with an average degree of substitution-7 (SBE7-β-CD). The pH of the solutions was adjusted to 7.4 with 0.1N hydrochloric acid and the solutions were transferred to glass vials. The vials were stoppered, crimp-capped and autoclaved for 20 minutes at 121° C. The pH of the autoclaved solutions was measured after the solutions were at room temperature.
Aliquots of the autoclaved solutions were irradiated with visible light for 72 hours (0.52 million lux hours) and other aliquots irradiated with ultraviolet light for 18 hours (119 watt hours/m2). The solutions were then processed, analyzed and reported as in Example 2, except that the chromatographic peak of the iohexol was evaluated at 300 nm for both samples and standards.
Aqueous formulations were prepared containing iodinated contrast agents at concentrations used commercially in medical procedures. Sulfobutylether-cyclodextrin, sodium salt, average degree of substitution ˜7 (SBE7CD) was added at varying agent:CD mole ratios. The formulations were placed in glass vials, sealed with rubber stoppers and aluminum crimps, and autoclaved at 121° C. for 20 minutes. […]

Structure (SMILES): CC(=O)N(CC(O)CO)c1c(I)c(C(=O)NCC(O)CO)c(I)c(C(=O)NCC(O)CO)c1I (stereo not shown) [Iohexol, iohexol]
- Iodide formed (pH 7.4, autoclaved then UV 18 h, agent:HP4.3-β-CD 1:0.025): 0.637 wt %
- Iodide formed (pH 7.4, autoclaved then UV 18 h, agent:HP4.3-β-CD 1:0.05): 0.616 wt %
- Iodide formed (pH 7.4, autoclaved then UV 18 h, agent:HP6.3-β-CD 1:0.025): 0.656 wt %
- Iodide formed (pH 7.4, autoclaved then UV 18 h, agent:HP6.3-β-CD 1:0.05): 0.603 wt %
- Iodide formed (pH 7.4, autoclaved then UV 18 h, agent:SBE7-β-CD 1:0.01): 0.693 wt %
- Iodide formed (pH 7.4, autoclaved then UV 18 h, agent:SBE7-β-CD 1:0.05): 0.574 wt %
- Iodide formed (pH 7.4, autoclaved then UV 18 h, agent:SBE7-β-CD 1:0.1): 0.526 wt %
- Iodide formed (pH 7.4, autoclaved then UV 18 h, agent:SBE7-β-CD 1:0.5): 0.384 wt %
- Iodide formed (pH 7.4, autoclaved then UV 18 h, agent:SBE7-β-CD 1:2): 0.282 wt %
- Iodide formed (pH 7.4, autoclaved then UV 18 h, no SCD (1:0)): 0.730 wt %
- Iodide formed (pH 7.4, autoclaved then visible light, agent:HP4.3-β-CD 1:0.025): 0.317 wt %
- Iodide formed (pH 7.4, autoclaved then visible light, agent:HP4.3-β-CD 1:0.05): 0.305 wt %
- Iodide formed (pH 7.4, autoclaved then visible light, agent:HP6.3-β-CD 1:0.025): 0.320 wt %
- Iodide formed (pH 7.4, autoclaved then visible light, agent:HP6.3-β-CD 1:0.05): 0.313 wt %
- Iodide formed (pH 7.4, autoclaved then visible light, agent:SBE7-β-CD 1:0.01): 0.392 wt %
- Iodide formed (pH 7.4, autoclaved then visible light, agent:SBE7-β-CD 1:0.05): 0.334 wt %
- Iodide formed (pH 7.4, autoclaved then visible light, agent:SBE7-β-CD 1:0.1): 0.327 wt %
- Iodide formed (pH 7.4, autoclaved then visible light, agent:SBE7-β-CD 1:0.5): 0.262 wt %
- Iodide formed (pH 7.4, autoclaved then visible light, agent:SBE7-β-CD 1:2): 0.163 wt %
- Iodide formed (pH 7.4, autoclaved then visible light, no SCD (1:0)): 0.392 wt %
- Iodide Formed, UV Irradiation (TRIS 0 mM, SBE7-β-CD 0 mM): 0.444 wt %
- Iodide Formed, VIS Irradiation (TRIS 0 mM, SBE7-β-CD 0 mM, autoclaved then VIS 72 h): 0.465 wt %
- Iodide Formed, UV Irradiation (TRIS 0 mM, SBE7-β-CD 2.5 mM): 0.373 wt %
- Iodide Formed, VIS Irradiation (TRIS 0 mM, SBE7-β-CD 2.5 mM, autoclaved then VIS 72 h): 0.472 wt %
- Iodide Formed, UV Irradiation (TRIS 2.5 mM, SBE7-β-CD 0 mM): 0.470 wt %
- Iodide Formed, VIS Irradiation (TRIS 2.5 mM, SBE7-β-CD 0 mM, autoclaved then VIS 72 h): 0.606 wt %
- Iodide Formed, UV Irradiation (TRIS 2.5 mM, SBE7-β-CD 2.5 mM): 0.368 wt %
- Iodide Formed, VIS Irradiation (TRIS 2.5 mM, SBE7-β-CD 2.5 mM, autoclaved then VIS 72 h): 0.464 wt %
- Iodide Formed, UV Irradiation (TRIS 5 mM, SBE7-β-CD 0 mM): 0.510 wt %
- Iodide Formed, VIS Irradiation (TRIS 5 mM, SBE7-β-CD 0 mM, autoclaved then VIS 72 h): 0.672 wt %
- Iodide Formed, UV Irradiation (TRIS 5 mM, SBE7-β-CD 2.5 mM): 0.421 wt %
- Iodide Formed, VIS Irradiation (TRIS 5 mM, SBE7-β-CD 2.5 mM, autoclaved then VIS 72 h): 0.640 wt %
- Iodide Formed, UV Irradiation (TRIS 7.5 mM, SBE7-β-CD 0 mM): 0.571 wt %
- Iodide Formed, VIS Irradiation (TRIS 7.5 mM, SBE7-β-CD 0 mM, autoclaved then VIS 72 h): 0.656 wt %
- Iodide Formed, UV Irradiation (TRIS 7.5 mM, SBE7-β-CD 2.5 mM): 0.465 wt %
- Iodide Formed, VIS Irradiation (TRIS 7.5 mM, SBE7-β-CD 2.5 mM, autoclaved then VIS 72 h): 0.613 wt %
- Iodide Formed, UV Irradiation (TRIS 10 mM, SBE7-β-CD 0 mM): 0.646 wt %
- Iodide Formed, VIS Irradiation (TRIS 10 mM, SBE7-β-CD 0 mM, autoclaved then VIS 72 h): 0.662 wt %
- Iodide Formed, UV Irradiation (TRIS 10 mM, SBE7-β-CD 2.5 mM): 0.514 wt %
- Iodide Formed, VIS Irradiation (TRIS 10 mM, SBE7-β-CD 2.5 mM, autoclaved then VIS 72 h): 0.612 wt %
- Iodide Formed, VIS (Iohexol 140 mg I/mL, pH 7.4, agent:SBE7CD 1:0.05, autoclaved then VIS 72 h): 0.0893 wt %
- Iodide Formed, UV (Iohexol 140 mg I/mL, pH 7.4, no SCD (1:0), autoclaved then UV 24 h): 0.191 wt %
- Iodide Formed, VIS (Iohexol 140 mg I/mL, pH 7.4, no SCD (1:0), autoclaved then VIS 72 h): 0.0967 wt %
